Values of other authors, collected in PubChem BioAssay AID977611.
The hits were mostly taken out for another list; the other results follow. Results with a measured potency or affinity are listed apart. Active and inactive are the calls of the source. The limit is not given here; nearly all actives have Kd up to about 4200 µM.

assay: PubChem AID 977611; details: PDB protein-ligand complexes, literature Kd; protein: FIBROBLAST GROWTH FACTOR RECEPTOR 1 (FMS-RELATED TYROSINE KINASE 2, PFEIFFER SYNDROME), ISOFORM CRA_B FGFR1; PDB entry 4v05

| SMILES | Kd |
| --- | --- |
| COc1cc(CCc2cc(NC(=O)c3ccc(N4C[C@@H](C)N[C@@H](C)C4)cc3)n[nH]2)cc(OC)c1 | active: 0.2 nM |
